Patent US20040166183A1, “Methods and means for preventing or treating inflammation or pruritis” (priority 1998, published 2004)
Some entries share one result that the patent states for a list of compounds.

Test system: bovine pancreatic elastase
Assay: Effect of protease inhibitors on purified enzymes: elastase (azocasein)
Format: biochemical
Settings: preliminary experiments; range over the listed inhibitors
Description: Proteolytic activity was determined in the fecal homogenates in appropriate dilutions (up to 250-fold) in 0.1 M phosphate buffer (pH 7.6). Penicilline (0.1% w/v) was added to prevent bacterial growth. In the more recent inhibition tests no penicillin was used. Samples of 0.1 ml were incubated with 0.1 ml 1% (w/v) azocasein (Sigma) in phosphate buffer at 37° C. during 1 h. The reaction was stopped by addition of 0.2 ml 10% (w/v) trichloroacetic acid (TCA); after 10 min at room temperature unhydrolysed azocasein, bacteria and other particles were removed by centrifugation at 10,000 rpm during 10 min. Then 0.1 ml of the clear supernatant was transferred to 0.1 ml of 1 N NaOH in flatbottom 24 wells microplates. To the blank assays azocasein was added after incubation an addition of TCA. The absorption of the samples was measured at 450 nm and compared with standard curves obtained from solutions of azocasein. Proteolytic activity was expressed as milligrams azocasein hydrolysed during 1 h per gram dry or wet weight of sample. Each diluted sample was tested for other than enzymatic substrate hydrolysis after heating at 80° C. for 10 min. Spontaneous substrate hydrolysis was tested by incubation of the substrate with buffer. […]

B1: ovomucoid: protease inhibitor, 1% (w/v) in 0.1 M phosphate buffer pH 7.6 (protein, UniProt P01005 25-210, looked up)
Ovomucoid: AEVDCSRFPNATDKEGKDVLVCNKDLRPICGTDGVTYTNDCLLCAYSIEFGTNISKEHDGECKETVPMNCSSYANTTSEDGKVMVLCNRAFNPVCGTDGVTYDNECLLCAHKVEQGASVDKRHDGGCRKELAAVSVDCSEYPKPDCTAEDRPLCGSDNKTYGNKCNFCNAVVESNGTLTLSHFGKC
suppression of the activity of elastase: 10-55%
